Reference: PubChem BioAssay AID2685 (National Center for Advancing Translational Sciences (NCATS), 2010)
Some of the results follow. These are further read-outs of the screen, such as a control signal, another cell line or another target. No call is given for them. Most of these compounds were active or inconclusive in the main read-out, so they are no random draw. The note in brackets gives the kind of curve behind each potency; many fits are weak.

Test: qHTS Assay for Lipid Storage Modulators in Drosophila S3 Cells;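 on cell number change: cells counted by Cell Tracker Red CMTPX staining in the red channel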
Settings: BODIPY lipid droplet fluorescence, 18-24 h; for cell number change: measured here: cell count max response, cells fed with added oleic acid
Outline: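 Laser-scanning cytometry quantifies lipid droplet accumulation (500–530 nm total intensity; droplet/cell object ratio) in oleic acid-fed (400 uM added) Drosophila S3 cells treated with a concentration series. 20 uM Triacsin C defined 100% inhibition.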

[1] = measured here: cell number channel AC50, cells fed with added oleic acid
[2] = measured here: lipid fluorescence (Fed channel) AC50, cells fed with added oleic acid

Row | Structure (SMILES) | cell number change [%] | AC50 [1] | AC50 [2]
1 | CC(/C=N/NC(=O)C(O)c1ccccc1)=C\c1ccccc1 (stereo not drawn) | -36.9 | 29.1 µM [falling, single point] | 20.6 µM [falling, partial curve]
2 | Cc1cc(Cn2nc(-c3ccccc3)cc2C(=O)NCc2cccs2)on1 | -3.17 |  | 20.6 µM [falling, single point]
3 | COCCn1c(SCC(=O)NC2CCCC(C)C2C)nc2ccccc2c1=O (stereo not drawn) | 25 |  | 
4 | Cn1c(=O)n(C)c2cc([N+](=O)[O-])c(N3CCN(C(=O)c4ccc(F)cc4)CC3)cc21 | 73.8 | 6.51 µM [falling, single point] | 6.51 µM [falling, single point]
5 | COc1ccc(Cl)cc1NC(=O)CCNC(=O)Cn1ccc2ccccc2c1=O | 38.5 |  | 18.4 µM [rising, single point]
6 | COc1ccccc1C(=O)NC(=S)Nc1ccc(Cc2ccncc2)cc1 | -58.9 | 7.31 µM [falling, partial curve] | 7.31 µM [falling, partial curve]
7 | CN1CCN(C(=O)c2cc3c(ccc4ccccc43)oc2=O)CC1 | -30.1 | 23.1 µM [falling, partial curve] | 
8 | Cc1nc(SCC(=O)c2ccc(F)cc2)n[nH]1 | 6.59 |  | 0.103 µM [rising, full curve, poor fit]
9 | O=C(CCCCCCCCN1C(=O)c2ccccc2C1=O)N1CCOCC1 | 12.4 |  | 
10 | CC(C)C(NC(=O)c1ccccc1)C(=O)NCCc1ccccc1 (stereo not drawn) | 39.1 | 10.3 µM [rising, single point] | 0.0058 µM [falling, full curve, poor fit]
11 | Cc1ccc(NC(=O)CSc2n[nH]c(-c3ccco3)n2)c(C)c1 | 21.1 |  | 13 µM [rising, partial curve]
12 | O=C(/C=C/c1ccc(-c2ccccc2[N+](=O)[O-])o1)c1ccc(F)cc1 | -23.6 |  | 8.2 µM [falling, partial curve, poor fit]
13 | O=S(=O)(c1ccccc1)N1CCC2(CC1)OCCN2S(=O)(=O)c1cccs1 | 111 | 16.4 µM [rising, partial curve] | 
14 | COc1cccc(-c2nc(CS(=O)(=O)CC(=O)NCCCc3ccccc3)c(C)o2)c1 | 43.7 | 23.1 µM [rising, single point] | 0.291 µM [falling, full curve]
15 | CCCOC(=O)C1=C(C)NC2=C(C(=O)CCC2)C1c1cccs1 (stereo not drawn) | -0.129 |  | 
16 | CCCCN(C)S(=O)(=O)c1c(C)[nH]c(=O)[nH]c1=O | -17.6 |  | 0.13 µM [falling, full curve, poor fit]
17 | CCOc1ccc(NC(=S)Nc2cccc3ccccc23)cc1 | -6.9 |  | 35.5 µM [rising, single point]
18 | CCOC(=O)c1sc(NC(=O)CSc2nc3c(c(=O)n2-c2ccc(F)cc2)SCC3)c(C(=O)OCC)c1C |  | 6.51 µM [rising, single point] | 1.46 µM [rising, partial curve]
19 | C=CC[N+]1(CC#Cc2ccccc2)CCCC1 | -5.31 |  | 1.46 µM [rising, partial curve]

Row | Structure (SMILES) | cell number change [%] | AC50 [1] | AC50 [2]
20 | CC(=O)NC1(C(F)(F)F)NC(=O)N(c2ccc(F)cc2)C1=O (stereo not drawn) | -29 | 0.92 µM [falling, full curve, poor fit] | 4.11 µM [falling, full curve]
21 | CCOC(=O)N1CCC(Nc2nc3ccccc3n3nnnc23)CC1 | -11.7 |  | 1.03 µM [rising, single point]
22 | COC(=O)c1ccc(C2/C(=C(/O)c3ccc4c(c3)CC(C)O4)C(=O)C(=O)N2CCN2CCOCC2)cc1 (stereo not drawn) | 19 |  | 0.0731 µM [rising, full curve, poor fit]
23 | Cn1cc(SCC(=O)Nc2nc3ccccc3s2)c2ccccc21 |  | 0.0731 µM [rising, full curve, poor fit] | 
24 | COC(=O)COc1ccc(C2NC(=O)NC(C)=C2C(=O)NCc2ccccc2)cc1OC (stereo not drawn) | 65.9 |  | 29.1 µM [rising, single point]
25 | CC(=O)c1cccc(NC(=O)c2ccc(-c3ccccc3[N+](=O)[O-])o2)c1 | -1.22 |  | 0.146 µM [rising, full curve, poor fit]
26 | Cc1c(OCc2ccccc2)cccc1OCc1ccccc1 | -4.26 |  | 0.82 µM [rising, full curve, poor fit]
27 | O=C(NNC(=O)c1cc(-c2ccc(Cl)cc2)nc2ccccc12)c1csc(N2CCOCC2)n1 | 16.3 |  | 29.1 µM [rising, single point]
28 | O=C(COC(=O)c1ccc(S(=O)(=O)N2CCCC2)cc1)NCc1ccc(Cl)cc1 | -11.6 | 2.31 µM [falling, partial curve] | 18.4 µM [falling, partial curve]
29 | COc1ccccc1N1CCN(C(=O)C(C)NC(=O)c2cccc([N+](=O)[O-])c2)CC1 (stereo not drawn) | 16.2 |  | 29.1 µM [falling, single point]
30 | CCc1ccc2c(CC(=O)Nc3cccc(S(=O)(=O)N4CCOCC4)c3)coc2c1 | -8.67 |  | 3.26 µM [falling, single point]
31 | CC(c1ccccc1)N(C)CC(=O)NC(=O)NCCC1=CCCCC1 (stereo not drawn) | -4.93 |  | 1.84 µM [rising, partial curve]
32 | CCC(C)NC(=O)Nc1ccccc1C (stereo not drawn) |  | 0.103 µM [rising, single point] | 5.8 µM [rising, partial curve]
33 | CCCCOc1cccc(-c2nnc(N)s2)c1 | 173 | 0.092 µM [rising, full curve, poor fit] | 
34 | O=C(CSC1=NS(=O)(=O)c2cc(F)ccc2N1)NCc1ccc(F)cc1 | -17.7 |  | 3.26 µM [falling, full curve, poor fit]
35 | O=C(CSc1ncnc2sccc12)Nc1ccccc1 | 13.3 | 0.116 µM [rising, full curve, poor fit] | 
36 | Cc1nc(SCC(=O)NC2CCS(=O)(=O)C2)c2c3c(sc2n1)CCCC3 (stereo not drawn) | 19.3 |  | 29.1 µM [rising, single point]
37 | Cc1ccn2cc(CCNC(=O)C3CC=CCC3C(=O)O)nc2c1 (stereo not drawn) | -7.37 |  | 0.651 µM [falling, full curve, poor fit]
38 | O=C(NC(=S)NC1CCSC1=O)c1cccs1 (stereo not drawn) | 33.3 | 6.51 µM [rising, partial curve, poor fit] | 

Reprinted: entries 37–38
Row | Structure (SMILES) | cell number change [%] | AC50 [1] | AC50 [2]
37 | Cc1ccn2cc(CCNC(=O)C3CC=CCC3C(=O)O)nc2c1 (stereo not drawn) | -7.37 |  | 0.651 µM [falling, full curve, poor fit]
38 | O=C(NC(=S)NC1CCSC1=O)c1cccs1 (stereo not drawn) | 33.3 | 6.51 µM [rising, partial curve, poor fit] | 

Whole records, looked up by structure.
CC(=O)c1cccc(NC(=O)c2ccc(-c3ccccc3[N+](=O)[O-])o2)c1 as listed: cell number change [%]: -1.22; AC50 [2]: 0.146 µM [rising, full curve, poor fit]
O=C(NC(=S)NC1CCSC1=O)c1cccs1 (stereo not drawn) as listed: cell number change [%]: 33.3; AC50 [1]: 6.51 µM [rising, partial curve, poor fit]

Continuation.

Row | Structure (SMILES) | cell number change [%] | AC50 [1] | AC50 [2]
39 | CCn1c(SCC(=O)O)nnc1-c1ccccc1 | 6.86 |  | 7.31 µM [rising, partial curve, poor fit]
40 | C/C(=N\Nc1cccc(Cl)c1)c1ccc(-n2ccnc2)cc1 | 32 | 0.58 µM [rising, full curve] | 0.92 µM [rising, full curve]
41 | CCC(C)(c1ccc(C=O)s1)c1ccc(C=O)s1 | -2.12 |  | 
42 | Cc1cc(=O)c(C(=O)O)cn1Nc1ccc(F)cc1 |  |  | 0.0411 µM [falling, full curve, poor fit]
43 | CC(C)NC(=O)c1ccc(CN2CCc3ccccc3C2)cc1 | 31.4 | 36.6 µM [rising, single point] | 13 µM [rising, partial curve, poor fit]
44 | C/C(=N\NC(=O)c1cccc(N/N=C(\C)c2ccncc2)c1)c1ccncc1 |  |  | 29.1 µM [falling, single point]
45 | COc1cc([C@H]2c3[nH]c4ccccc4c3C[C@H]3C(=O)N4[C@@H](c5cc(OC)c(OC)c(OC)c5)c5[nH]c6ccccc6c5C[C@H]4C(=O)N23)cc(OC)c1OC |  | 0.82 µM [falling, partial curve] | 9.2 µM [falling, partial curve]
46 | COCCNCc1ccccc1 |  |  | 23.1 µM [falling, partial curve]
47 | CCC1(CC)Cc2ccccc2C(=C(C#N)C#N)N1 | 29.5 |  | 5.8 µM [rising, partial curve]
48 | CC1CCN(c2ccccc2NC(=O)c2ccc(C#N)cc2F)CC1 | 110 | 18.4 µM [rising, single point] | 
49 | COc1ccc(CN(Cc2ccc(C(=O)O)cc2)C(=S)Nc2cc(C)cc(C)c2)cc1OC | -44.2 | 1.64 µM [falling, partial curve, poor fit] | 1.46 µM [falling, partial curve]
50 | O=C(COC(=O)/C=C/c1cccc([N+](=O)[O-])c1)NCc1ccco1 | -40 | 29.1 µM [falling, single point] | 
51 | O=S(=O)(Nc1ccc(Cl)cc1)c1ccc(N2CCOCC2)c(NC(=S)NC2CC2)c1 | 22.9 |  | 
52 | Cc1cc(C)n2nc(C(=O)Nc3c(C)nn(Cc4ccc(F)cc4)c3C)cc2n1 | 6.94 |  | 1.16 µM [rising, single point]
53 | CCc1cc(OCCN2C(=O)NC(C)(C)C2=O)ccc1Cl | -2.86 | 1.46 µM [falling, partial curve] | 0.92 µM [falling, full curve]
54 | CC(NCC(O)c1ccc([N+](=O)[O-])cc1)C12CC3CC(CC(C3)C1)C2 (stereo not drawn) | 7.36 |  | 32.6 µM [falling, single point]
55 | Cc1c(OC(=O)c2ccc([N+](=O)[O-])cc2)c2c(c[n+]1C)COC(C)(C)OC2 |  |  | 4.11 µM [rising, partial curve, poor fit]
56 | CSc1ccc(CCNS(=O)(=O)c2c(C)[nH]c(C)c2C(=O)N2CCCCC2)cc1 | -18.8 |  | 0.82 µM [falling, single point]
